In patent publication US20130317087:
Construct, isoform or probe ends are uncertain for at least one entry. Results from cells or extracts need not show a direct contact. For some of these results: No signal at the amounts used counts as a negative. For some of these results: Tags and fusion partners may be left off the protein sequences shown.

What was measured:
Test in all cases: pull-down
FMR1 (Homo sapiens) = FMR1 (Homo sapiens) (UniProt Q06787); conditions: protein in cells
UPF1 (Homo sapiens) = biological target: T1, UPF1 (Homo sapiens) (UniProt Q92900); conditions: protein in cells; variant of 1/2-sbsRNA1(S) lncRNA (AF087999)
T1 sequence (looked up, limits assumed): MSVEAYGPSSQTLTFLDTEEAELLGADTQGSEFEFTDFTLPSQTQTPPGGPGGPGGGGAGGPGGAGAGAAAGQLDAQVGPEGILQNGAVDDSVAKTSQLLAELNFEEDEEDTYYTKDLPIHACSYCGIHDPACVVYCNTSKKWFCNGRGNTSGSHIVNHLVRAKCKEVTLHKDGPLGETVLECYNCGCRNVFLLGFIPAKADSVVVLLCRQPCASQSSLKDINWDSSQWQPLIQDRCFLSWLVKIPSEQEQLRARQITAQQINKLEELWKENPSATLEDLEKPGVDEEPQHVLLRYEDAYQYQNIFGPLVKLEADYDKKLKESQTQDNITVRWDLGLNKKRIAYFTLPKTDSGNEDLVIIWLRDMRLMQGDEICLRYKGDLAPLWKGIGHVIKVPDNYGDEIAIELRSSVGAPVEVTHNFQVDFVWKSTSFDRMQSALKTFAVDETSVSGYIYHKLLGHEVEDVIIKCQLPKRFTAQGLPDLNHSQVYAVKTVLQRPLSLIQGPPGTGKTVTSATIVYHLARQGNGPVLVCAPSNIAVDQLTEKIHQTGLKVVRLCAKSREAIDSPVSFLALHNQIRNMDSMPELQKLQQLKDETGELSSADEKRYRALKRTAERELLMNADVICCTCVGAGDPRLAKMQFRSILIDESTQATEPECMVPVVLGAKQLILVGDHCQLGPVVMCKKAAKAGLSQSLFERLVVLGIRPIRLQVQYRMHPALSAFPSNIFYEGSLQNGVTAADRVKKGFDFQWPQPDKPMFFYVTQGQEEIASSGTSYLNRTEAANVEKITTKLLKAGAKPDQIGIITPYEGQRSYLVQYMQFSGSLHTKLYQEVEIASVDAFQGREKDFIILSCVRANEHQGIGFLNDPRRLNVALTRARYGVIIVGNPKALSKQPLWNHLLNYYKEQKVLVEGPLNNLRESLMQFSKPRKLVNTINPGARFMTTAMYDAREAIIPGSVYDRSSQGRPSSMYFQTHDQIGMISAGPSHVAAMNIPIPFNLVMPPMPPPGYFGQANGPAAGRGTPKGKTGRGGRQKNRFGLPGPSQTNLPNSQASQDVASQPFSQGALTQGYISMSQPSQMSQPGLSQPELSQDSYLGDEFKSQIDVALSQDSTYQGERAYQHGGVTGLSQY

[1] = biological target: T2, STAU1 (endogenous) (Homo sapiens) (UniProt O95793); conditions: co-IP via FLAG-MS2-hMGFP, formaldehyde-crosslinked HeLa; protein in cells; variant of 1/2-sbsRNA1(S) lncRNA (AF087999)
T2 sequence (limits assumed): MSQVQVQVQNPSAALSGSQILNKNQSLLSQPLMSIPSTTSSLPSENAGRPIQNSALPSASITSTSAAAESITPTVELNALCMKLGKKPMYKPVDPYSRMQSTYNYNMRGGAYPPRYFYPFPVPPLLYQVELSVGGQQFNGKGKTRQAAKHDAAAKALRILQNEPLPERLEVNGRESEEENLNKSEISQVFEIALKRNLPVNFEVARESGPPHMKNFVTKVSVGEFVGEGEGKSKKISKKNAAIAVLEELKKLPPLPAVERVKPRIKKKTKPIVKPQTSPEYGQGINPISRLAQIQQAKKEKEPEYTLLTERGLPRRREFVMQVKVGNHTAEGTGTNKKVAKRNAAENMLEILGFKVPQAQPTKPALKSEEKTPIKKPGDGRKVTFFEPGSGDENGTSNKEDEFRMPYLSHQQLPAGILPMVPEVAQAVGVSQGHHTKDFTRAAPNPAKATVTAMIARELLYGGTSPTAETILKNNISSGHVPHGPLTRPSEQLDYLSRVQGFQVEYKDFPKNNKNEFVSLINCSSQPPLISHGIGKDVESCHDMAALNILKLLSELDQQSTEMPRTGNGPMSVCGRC

ILF3 (Homo sapiens) = ILF3 (Homo sapiens) (UniProt Q12906); conditions: protein in cells
[2] = biological target: T3, STAU1-HA3 (hSTAU1) (Homo sapiens) (UniProt O95793); conditions: protein in cells
T3 sequence (limits assumed): T2 sequence (limits assumed)

[3] = not co-immunoprecipitated via FLAG-MS2-hMGFP, variant of 1/2-sbsRNA1(S) lncRNA (AF087999)

Row | Sequence | binding result (FMR1 (Homo sapiens); [3]) | binding result (UPF1 (Homo sapiens)) | binding result [1] | binding result (ILF3 (Homo sapiens); [3]) | binding result [2] | binding result (FMR1 (Homo sapiens); did not co-IP with 1/2-sbsRNA1) | binding result (ILF3 (Homo sapiens); did not co-IP with 1/2-sbsRNA1)
1 | CCAAGAAGUAGGUUUUUUUUUUUUUUUAAAUAAAGGAGAGACAGUCUCACUCUGUUGCCCAGGCUGGAAUACAGUGGUGUGAUCAUAGCUCACUGCAGCCUCUUUUAACUCCUGGGCUCAAGCAAUCCUUCCAACCUCAGCAUUCUGAGUAGCUGGGAUCACAGGUGCUCCCCAUCACACCCUGCUAAUUUAAUUUUCUUUGUAGAGACAGGGUCUUGCUAUGUUGCCUAGGCUGGUCUUGAACUCCUGGGCUCAAGUGAUCCUCCCGCCUCAGCCUCCCAGUGUUAGGAUUACAGGAGUGAGCCACUGCCUCUGCCUUCAGGUAGCAAUUUUAUUAGCAAACUAUAAGCCUAAAGUAAUAGUUAAAAUUCUCACUGUGAUAUUCAUUACUAACCCCUGAACCUGUACCCUUCAGCUUACCACUACAGUACUUCUGUAGUAGAGCGAGUAUGGGUUUUGGUAUCAGACAGGUCCAAAUUUGAAUUCUGGUUCUACCUUUCAUUUAUCAAAUGACUUUGGGCAAAGUACUUAACCUCUCUGAGCUUUAGUUCCCUUCUCUGUAAAAGAAUAAAAUAUUUCAGUCUUAUCGUGUAGAUGAUAUACAGAGGGCACAUAACAAAUGUUAGAUCUCUCAAAUGUUUUUCUGUAACCCAAAUAUGCUUACAACUGAUUAAAGAAUGUUCUCACU [1/2-sbsRNA1(S)-MS2bs] | no binding | binds | binds | no binding | – | – | –
2 | CCAAGAAGUAGGUUUUUUUUUUUUUUUAAAUAAAGGAGAGACAGUCUCACUCUGUUGCCCAGGCUGGAAUACAGUGGUGUGAUCAUAGCUCACUGCAGCCUCUUUUAACUCCUGGGCUCAAGCAAUCCUUCCAACCUCAGCAUUCUGAGUAGCUGGGAUCACAGGUGCUCCCCAUCACACCCUGCUAAUUUAAUUUUCUUUGUAGAGACAGGGUCUUGCUAUGUUGCCUAGGCUGGUCUUGAACUCCUGGGCUCAAGUGAUCCUCCCGCCUCAGCCUCCCAGUGUUAGGAUUACAGGAGUGAGCCACUGCCUCUGCCUUCAGGUAGCAAUUUUAUUAGCAAACUAUAAGCCUAAAGUAAUAGUUAAAAUUCUCACUGUGAUAUUCAUUACUAACCCCUGAACCUGUACCCUUCAGCUUACCACUACAGUACUUCUGUAGUAGAGCGAGUAUGGGUUUUGGUAUCAGACAGGUCCAAAUUUGAAUUCUGGUUCUACCUUUCAUUUAUCAAAUGACUUUGGGCAAAGUACUUAACCUCUCUGAGCUUUAGUUCCCUUCUCUGUAAAAGAAUAAAAUAUUUCAGUCUUAUCGUGUAGAUGAUAUACAGAGGGCACAUAACAAAUGUUAGAUCUCUCAAAUGUUUUUCUGUAACCCAAAUAUGCUUACAACUGAUUAAAGAAUGUUCUCACU [1/2-sbsRNA1(S) lncRNA (AF087999)] | – | – | – | – | binds | no binding | no binding
